Data: PubChem BioAssay AID1347426 (Functional Genomics Laboratory (NCATS/FGL), 2020)
The whole screen tested about 31,000 sequences, of which about 1,400 (4.5%) were called active.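 How the source made its calls: active means median seed-adjusted z-score above 1 or below -1; inactive means the rest.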 The list shows a part of the results.

test: Novel Modifiers of Survival Motor Neuron (SMN) Protein: Gene Identification via Genome-wide siRNA Screen; conditions: HEK293T SMN2-luciferase reporter, siRNA knockdown, 72 h; actives lie on both sides;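 further: luminescence tracks full-length SMN protein made from the SMN2 reporter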
Method in brief: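 Steps: spot 1 pmol siRNA, add Lipofectamine RNAiMax in serum-free DMEM, seed HEK293T SMN2–luciferase reporter cells; incubate 72 h at 37 °C; add ONE-Glo; normalize luminescence to control siRNA, log10, MAD. Candidates: |MAD| > 1.0.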

Sequence | median seed-adjusted z-score
GCAUCUCUUUGUAGCAUUUTT against MMD2 | inactive: -0.0908
GGACCGUUUCAGUAUCAUUTT against ITIH5 | inactive: -0.289
CGGGAACUAUCCAAACAAUTT against DMBT1 | inactive: -0.131
CAGAUAUACUGUGCCUUCATT against APEX1 | inactive: -0.312
CAGCUACUUUAAAGGACAATT against IBSP | inactive: -0.111
CAACGUAGAUGGUGAUGGATT against FAM63B | inactive: 0.111
GGACUACGAGAAAGACAAATT against PPM1L | inactive: 0.4
GGCUAUUCCGAAGCAUGUUTT against PAK6 | inactive: -0.57
GAGUCUACCUAAUUCUGGATT against AURKA | inactive: -0.108
GGUUAAAUCAUGUAGGAGATT against RARS | inactive: -0.268
GAAGCUCCCAAGGACAUUATT against ATG7 | inactive: -0.328
GCAUACGAUUUUAAGCGGATT against PTEN | inactive: -0.408
UGCUACACGUCAGUGCUGATT against PGAM2 | inactive: -0.247
CGAGGACAACACCCACUUUTT against ATP2A1 | inactive: -0.0384
GGAUCGUAGUGAAACCGAUTT against DDX17 | inactive: 0.231
GCAGUAAUAUUUAUCUCUUTT against SUCNR1 | inactive: 0
GAUACGUGCUUCAACAAAATT against NEK11 | inactive: 0.181
CCCAGAAGAUUACCUUUGATT against NARG1L | inactive: 0.0121
GCCUAGCAGCUGUUGGUUATT against ADHFE1 | inactive: 0.418
GCCUUUGUCCUGUAUAACATT against LPHN3 | inactive: -0.0576
GGAAUAUAAUGUUAACGAUTT against HLTF | inactive: -0.00902
GCAACUUGGACUACAAGAATT against MYL2 | inactive: -0.0369

Sequence | median seed-adjusted z-score
CAACGGUACUUGACCUCAATT against KCNJ1 | inactive: 0.0148
GGAUUAUGAUUUUGAGGAATT against ZMAT2 | inactive: 0.104
GGAUCCUGGUGAUAAGAGATT against QRICH1 | active: -1.04
GGACAGCGCGUUCUUUAAATT against TCF7L1 | inactive: -0.251
GGAGGAUUGUGCUCUGCAATT against FHOD1 | inactive: -0.114
GGCUCAACAUACAUCAGAATT against ZNF350 | inactive: 0.133
CAAUAUGCCCUGUUAGGAUTT against SLC22A15 | inactive: -0.137
GAAGAGCUCCCGAGACAUATT against DDX28 | inactive: -0.305
CAUCGUUACAAGAUGCAUATT against UBR1 | inactive: -0.775
GCAGCGUAAUUACCACCAUTT against SLCO5A1 | inactive: 0.272
ACUUGGUUUGCUCAACAAATT against MXI1 | inactive: 0.348
GUGUCGAGCUUGCAACUGUTT against LAMC2 | inactive: -0.186
CUCUGAACUUGGACCGCAATT against ZFYVE28 | inactive: 0.0678
GCCUUCGACUUUGAGUUUATT against VPS26B | inactive: -0.038
GCCUCAACAUCAGGGUGGATT against ABCD1 | inactive: 0
GCUGUGAGAUUUACUCUGATT against ALAS1 | active: -1.15
CGAGCGUAUCACCAUCUUUTT against NLGN2 | inactive: 0.204
AGUUCAACCAGGUAGGGAATT against ZBTB17 | inactive: 0.0544
GCUUCUCAUGGGAUCAAAATT against PGCP | inactive: 0.145
GAAUCAUUAUAAGGAUCAATT against RAMP2 | inactive: 0.289
UGACGUAGGAAUAAACGGATT against PCDH11X | inactive: -0.203
GGAUCAAUGUGACGGAGAATT against EMILIN2 | inactive: 0.726

Rewritten in CSV form: entries from further up.
Sequence,median seed-adjusted z-score
GGACAGCGCGUUCUUUAAATT against TCF7L1,inactive: -0.251
GGAGGAUUGUGCUCUGCAATT against FHOD1,inactive: -0.114

Following part

Sequence | median seed-adjusted z-score
GAGUAGUACCUGAUACAGATT against LAMC2 | inactive: -0.186
CAGCUUUACGAGUAUGCAATT against HS6ST3 | inactive: -0.405
GCAUCUUGUUGGACAUAUUTT against MTA1 | inactive: 0.407
CGAUGUACGUAUCAUCUCATT against RBM23 | inactive: 0.14
GCUUCUGACAUAAAACGGATT against CCNG2 | inactive: -0.764
GAACGUGCGUUAUACCGCATT against DYNC1H1 | inactive: 0
CUUCAUCUUCCGUAUCUUATT against PCTK1 | inactive: -0.729
CCUUAUAUGAAGAACCAGATT against MYCBP | inactive: -0.196
GGAUGUUCUUAGCACAUCATT against BLM | inactive: -0.0654
CCUUACGAAUCAUAAGAUATT against ZNF708 | inactive: 0.0562
GAGCACAAACGGAAACAAUTT against BCL11A | inactive: 0.297
CCGUAGCACUCAUUAUUCUTT against SLC2A13 | inactive: -0.0451
CCAAGAUGCUCUUUACAAATT against GLRX2 | inactive: -0.244
GAAGGAAUGAUUCGAUUUATT against WDHD1 | inactive: -0.0501
GGUACUCGGUGAUAAUUGATT against AOF1 | inactive: -0.211
AGAGGAAUGUGAUUGUCAUTT against AKR1B10 | inactive: 0
CGACUGCGAGUGGACUAUATT against MRE11A | inactive: 0.0507
GCCUUUAAAUGGUCUUUAATT against ZNF141 | inactive: 0.223
GGAAGCGGCUGAUCUUUUATT against ST6GALNAC1 | inactive: -0.854
CUGUUACCAUGGACUCGGATT against ACCN2 | inactive: -0.597
GCUAUGACCUUGUCAUACATT against ZNF544 | inactive: -0.00739
CUUCUGCGAUAGCAACUAATT against SLC12A1 | inactive: -0.406

Sequence | median seed-adjusted z-score
GGACUUGGAUUAUGAACUATT against COL6A3 | inactive: 0.341
GGUAAUAGAUGGUCUGGAATT against PPIL3 | inactive: 0.282
GUGGUGUGGUCAACGAAGATT against KCNIP1 | inactive: -0.0767
CCUGACCAGUGUCUACAUUTT against ADAMTS13 | inactive: -0.276
GACUUACCUUCUGAGCAUATT against ZNF792 | inactive: 0
GGACUUUCCUGAUAACAGUTT against PLCB2 | inactive: 0.0845
CGACCGUGGUGACAUGAUUTT against LRP3 | active: -1.05
GCAAUUACAUGAGCGAGCATT against PLK1 | active: -2.57
CACCACCAGUCACAACCUATT against ARID5A | inactive: 0.0642
CAGAGUACCUGAACUAUGATT against MARS | inactive: -0.266
GAGUCACACCUGUCGAUUATT against TSNAX | inactive: 0.514
ACAAGUUGCUGGAAGGUGATT against KLK15 | inactive: 0
CAGUAAGACAGAUACGUCATT against NCOA3 | inactive: -0.594
GGCUUUAACCGGAAGUCAATT against ZNF133 | inactive: -0.199
AGAUCAUGUAUUACCAACATT against RGS9 | inactive: 0.0665
CAUUACUACUUUGCGCAAATT against PUM2 | inactive: -0.129
GGCAAUUGAUAAUACUUCATT against MUT | inactive: 0.333
GAACCACUUACACAAAAUATT against KLK9 | inactive: -0.476
GCACAAGGAUCAUUUUCGATT against MYO6 | inactive: 0
GCAUUACGAUUUCAGCUGATT against CPNE3 | inactive: 0.109
GGUCGAGCAGAUGAACUUATT against SDCCAG10 | inactive: -0.465
AGUGGGAUAUGGUCCGAAATT against ACTN3 | inactive: -0.109

Exported tab-delimited: part of the list above
Sequence	median seed-adjusted z-score
CCUGACCAGUGUCUACAUUTT against ADAMTS13	inactive: -0.276
GGACUUUCCUGAUAACAGUTT against PLCB2	inactive: 0.0845
GCAAUUACAUGAGCGAGCATT against PLK1	active: -2.57
GCACAAGGAUCAUUUUCGATT against MYO6	inactive: 0
AGUGGGAUAUGGUCCGAAATT against ACTN3	inactive: -0.109

Additional records:

Sequence | median seed-adjusted z-score
CAGAUGAUAUUAUUGCGUATT against PHTF1 | inactive: 0.0129
AGACAGUUAUGCAGCUAUUTT against CLTA | inactive: 0.243
UGCUCUCAGUGGAAGAGGATT against TNFRSF8 | inactive: 0.739
CAGAUGAAAGGGUAAUAAATT against ZNF480 | inactive: -0.164
CUAUGAUGAAUACACCAAATT against COL10A1 | inactive: -0.0291
GAUGUAGAGCGAUACUUCATT against ZNF230 | inactive: -0.203
GCUGGAUACUUUUAUCGCATT against LOC91431 | inactive: 0.0402
CCAACCUUCUGAAUACGUUTT against GPR126 | inactive: -0.243
CCAUUUUAGCAACUGAACATT against KLRC1 | inactive: 0.171
GUAUCAGUGUAAAGGAUCATT against CD3G | inactive: -0.0274
GGAAAAUCAUGGAAGUUGATT against IGF2BP2 | inactive: 0.281
CAGCCUACCUGAAACAGAATT against KLC3 | inactive: -0.156
CUUUCAUCUCUAAAACUGATT against LHX3 | inactive: 0.622
GGCUCAUUUUCGCCCUGUATT against CHP2 | inactive: 0.364
GACAGACUGUGCAUAUGUATT against GPR15 | inactive: 0.101
AGACUGUAUUGCAGGGUGATT against MAFK | active: 1.73
GGGAGUCUCAGUUCACUUUTT against PGRMC1 | inactive: 0.124
GGGCUUACAUUUUGCAAGATT against TAAR2 | inactive: 0.137
GAAUGGAUAUGAUUAAGCATT against NCOA2 | inactive: 0.149
